Reference: publication doi:10.1101/201277 (bioRxiv, 2017)
These are yes or no findings as the source states them, for the method shown. For some assays here: Binding seen in cells or lysates may run through a third protein. Some binding calls cover weakened binding; strength is not graded here.

Protein sequences, listed by entry. Tags and fused reporters are not part of them.
UniProt P0ACP1: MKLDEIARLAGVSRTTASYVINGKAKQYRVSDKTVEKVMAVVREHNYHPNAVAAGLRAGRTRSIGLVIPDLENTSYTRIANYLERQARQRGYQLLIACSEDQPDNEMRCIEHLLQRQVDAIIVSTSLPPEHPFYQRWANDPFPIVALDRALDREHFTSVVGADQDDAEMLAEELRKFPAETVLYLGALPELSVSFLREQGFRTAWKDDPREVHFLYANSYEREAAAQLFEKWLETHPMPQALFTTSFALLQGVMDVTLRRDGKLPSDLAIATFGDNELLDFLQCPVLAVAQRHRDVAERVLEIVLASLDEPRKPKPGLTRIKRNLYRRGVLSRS

What was measured:
[1] = biological target: catabolite repressor activator protein (Cra), wild-type (E. coli) (UniProt P0ACP1); assay: pull-down
[2] = biological target: catabolite repressor activator protein (Cra), wild-type (E. coli) (UniProt P0ACP1); assay: co-purification

binding [1]: binds
binding [2]: binds
B1: fructose-1-kinase (FruK), recombinant, separately purified (enzyme, E. coli, UniProt P0AEW9 1-312, looked up)
chain: MSRRVATITLNPAYDLVGFCPEIERGEVNLVKTTGLHAAGKGINVAKVLKDLGIDVTVGGFLGKDNQDGFQQLFSELGIANRFQVVQGRTRINVKLTEKDGEVTDFNFSGFEVTPADWERFVTDSLSWLGQFDMVCVSGSLPSGVSPEAFTDWMTRLRSQCPCIIFDSSREALVAGLKAAPWLVKPNRRELEIWAGRKLPEMKDVIEAAHALREQGIAHVVISLGAEGALWVNASGEWIAKPPSVDVVSTVGAGDSMVGGLIYGLLMRESSEHTLRLATAVAALAVSQSNVGITDRPQLAAMMARVDLQPFN
